In patent CN112048019A:
These are yes or no findings as the source states them, for the method shown. Some results given as binding are weak or reduced against the parent protein; the word gives no strength.

The chains behind the UniProt entries cited, without tags or fusion partners. Residues count along the entry.
UniProt Q08722, residues 19-139: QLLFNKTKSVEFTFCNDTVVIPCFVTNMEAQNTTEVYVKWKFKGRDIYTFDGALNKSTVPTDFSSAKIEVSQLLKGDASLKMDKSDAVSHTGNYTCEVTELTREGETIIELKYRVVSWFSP

Molecular target: CD47蛋白 (analyte in the ForteBio assay) (human) (UniProt Q08722)
Assay: BLI (ForteBio)

binding: binds
B1: 抗CD47单克隆抗体3D8 (杂交瘤细胞株3D8, CGMCC No:17293) (antibody, V domains shown)
VH: EVKLQESGAELMKPGASVKISCKATGYTFSRYWIEWVKQRPGHGLEWIGDILPGTSNTNYNEKFKGKATFTADSSSNTAYMQLSSLTSEDSAVYYCARRGLLRFDCWGQGTTVTVSS
VL: DIQLTQSPAIMSASPGEKVTMTCRASSSVSSSYLHWYQQKSGASPKLWIYSSSTLASGVPARFSGSGSGTSYSLTISSVEAEDAATYYCQQYSGYPLTFGSGTKLGIKR
